Measurements reported in patent US8475800B2 (Centre National de la Recherche Scientifique, priority 2001, dated 2013).
Where a sequence shows no end group, the ends are not given.

Assay: general procedure: Fmoc solid-phase peptide synthesis
Settings: whole synthesis

Substance | purity (crude or final not stated)
YVSRYFGSAIRHEPKMKIYRG | 96.5%
SEQ ID NO: 1 in which the serine in position 10 is phosphorylated (RIHMVYSKRSGKPRGYAFIEY; phosphoserine at position 10; listed as Homo sapiens) | 90.2%
